Laboratory results reported in US20210154208A1, “Method to Identify Agents That Can Overcome Inhibition Caused By Drug-protein Binding of the Human Plasma Protein, Alpha-1-acid Glycoprotein” (The Johns Hopkins University, priority 2019, published 2021).

System: MOLM-14 cells
Test: Modified PIA, MTT proliferation with purified human AGP
Format: cell-based
Conditions: MOLM-14, purified AGP at physiologic concentrations
Procedure: In the original plasma inhibitory assay (PIA), FLT3/ITD-expressing cells are co-incubated with plasma samples from patients receiving a FLT3 TKI, and Western blotting analysis of FLT3 auto-phosphorylation is used to measure the extent of FLT3 inhibitory activity present in their plasma.(9) This can then be compared to total plasma drug levels to determine the relative efficacy of a drug in vivo compared to its activity in vitro. […] To model these effects in the pre-clinical setting, we modified the PIA assay. Whereas the PIA was designed to assess in vivo drug activity with regards to a specific target (e.g.: inhibition of FLT3 auto-phosphorylation by TKI), the modified PIA is similarly cell-based, but measures the clinically relevant biological end-points of cytotoxicity and proliferation inhibition, instead of target inhibition. In the modified assay, FLT3/ITD cell lines are cultured in the presence of human plasma or purified human plasma proteins and treated with a range of concentrations of the drug of interest. […] Furthermore, like the original PIA, Western blot analysis can be performed on cells treated in this manner to study specific pathways of interest (FIG. 1B). […] The modified PIA utilizes the general endpoint of cytotoxicity. […]

## CO[C@@H]1[C@H](N(C)C(=O)c2ccccc2)C[C@H]2O[C@]1(C)n1c3ccccc3c3c4c(c5c6ccccc6n2c5c31)C(=O)NC4 [midostaurin]
  fold inhibition by AGP (fold-change in IC50): 300 fold
